For data set [1], the target named is T1, SE (untagged) (Arabidopsis thaliana) (UniProt Q9ZVD0).
T1 sequence (looked up): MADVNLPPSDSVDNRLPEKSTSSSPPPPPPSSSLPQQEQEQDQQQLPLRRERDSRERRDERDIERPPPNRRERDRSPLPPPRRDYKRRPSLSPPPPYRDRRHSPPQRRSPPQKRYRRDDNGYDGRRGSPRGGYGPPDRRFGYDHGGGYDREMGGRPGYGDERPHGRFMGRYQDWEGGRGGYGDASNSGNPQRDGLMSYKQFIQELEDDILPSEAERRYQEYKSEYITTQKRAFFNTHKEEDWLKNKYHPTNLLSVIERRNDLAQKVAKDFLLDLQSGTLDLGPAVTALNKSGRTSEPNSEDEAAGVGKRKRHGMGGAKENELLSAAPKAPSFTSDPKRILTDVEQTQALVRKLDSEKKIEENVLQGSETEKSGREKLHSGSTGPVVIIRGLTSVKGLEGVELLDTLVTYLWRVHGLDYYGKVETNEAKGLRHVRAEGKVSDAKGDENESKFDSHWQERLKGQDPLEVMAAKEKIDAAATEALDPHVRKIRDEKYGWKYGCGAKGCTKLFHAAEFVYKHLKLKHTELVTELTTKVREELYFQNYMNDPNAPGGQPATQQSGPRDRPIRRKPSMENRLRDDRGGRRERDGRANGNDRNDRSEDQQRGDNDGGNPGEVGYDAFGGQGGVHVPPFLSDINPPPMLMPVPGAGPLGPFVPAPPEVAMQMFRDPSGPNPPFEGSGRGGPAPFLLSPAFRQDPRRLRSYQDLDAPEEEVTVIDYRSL
The experiment in a line: SPR. As to conditions: 150 mM NaCl, nearly negligible, stated not to bind; SPR (Biacore T100): 20 mM Tris-HCl pH 7.0, 50 or 150 mM NaCl, 2 mM β-ME (0.005% P20 for SE variants); proteins 42-43 nM (Fig 2E), SE 20 nM (Fig 4); recombinant protein; residues 1-720; label: 5'-biotin on strand 1; counted as no binding. (In general: SPR reads the build-up and loss of mass on a sensor chip optically.)

Chains of the proteins cited; added tags and fusions are not shown. Lines headed by an entry give the natural chain unless they say otherwise; changes in a name come on top.
UniProt Q9SP32: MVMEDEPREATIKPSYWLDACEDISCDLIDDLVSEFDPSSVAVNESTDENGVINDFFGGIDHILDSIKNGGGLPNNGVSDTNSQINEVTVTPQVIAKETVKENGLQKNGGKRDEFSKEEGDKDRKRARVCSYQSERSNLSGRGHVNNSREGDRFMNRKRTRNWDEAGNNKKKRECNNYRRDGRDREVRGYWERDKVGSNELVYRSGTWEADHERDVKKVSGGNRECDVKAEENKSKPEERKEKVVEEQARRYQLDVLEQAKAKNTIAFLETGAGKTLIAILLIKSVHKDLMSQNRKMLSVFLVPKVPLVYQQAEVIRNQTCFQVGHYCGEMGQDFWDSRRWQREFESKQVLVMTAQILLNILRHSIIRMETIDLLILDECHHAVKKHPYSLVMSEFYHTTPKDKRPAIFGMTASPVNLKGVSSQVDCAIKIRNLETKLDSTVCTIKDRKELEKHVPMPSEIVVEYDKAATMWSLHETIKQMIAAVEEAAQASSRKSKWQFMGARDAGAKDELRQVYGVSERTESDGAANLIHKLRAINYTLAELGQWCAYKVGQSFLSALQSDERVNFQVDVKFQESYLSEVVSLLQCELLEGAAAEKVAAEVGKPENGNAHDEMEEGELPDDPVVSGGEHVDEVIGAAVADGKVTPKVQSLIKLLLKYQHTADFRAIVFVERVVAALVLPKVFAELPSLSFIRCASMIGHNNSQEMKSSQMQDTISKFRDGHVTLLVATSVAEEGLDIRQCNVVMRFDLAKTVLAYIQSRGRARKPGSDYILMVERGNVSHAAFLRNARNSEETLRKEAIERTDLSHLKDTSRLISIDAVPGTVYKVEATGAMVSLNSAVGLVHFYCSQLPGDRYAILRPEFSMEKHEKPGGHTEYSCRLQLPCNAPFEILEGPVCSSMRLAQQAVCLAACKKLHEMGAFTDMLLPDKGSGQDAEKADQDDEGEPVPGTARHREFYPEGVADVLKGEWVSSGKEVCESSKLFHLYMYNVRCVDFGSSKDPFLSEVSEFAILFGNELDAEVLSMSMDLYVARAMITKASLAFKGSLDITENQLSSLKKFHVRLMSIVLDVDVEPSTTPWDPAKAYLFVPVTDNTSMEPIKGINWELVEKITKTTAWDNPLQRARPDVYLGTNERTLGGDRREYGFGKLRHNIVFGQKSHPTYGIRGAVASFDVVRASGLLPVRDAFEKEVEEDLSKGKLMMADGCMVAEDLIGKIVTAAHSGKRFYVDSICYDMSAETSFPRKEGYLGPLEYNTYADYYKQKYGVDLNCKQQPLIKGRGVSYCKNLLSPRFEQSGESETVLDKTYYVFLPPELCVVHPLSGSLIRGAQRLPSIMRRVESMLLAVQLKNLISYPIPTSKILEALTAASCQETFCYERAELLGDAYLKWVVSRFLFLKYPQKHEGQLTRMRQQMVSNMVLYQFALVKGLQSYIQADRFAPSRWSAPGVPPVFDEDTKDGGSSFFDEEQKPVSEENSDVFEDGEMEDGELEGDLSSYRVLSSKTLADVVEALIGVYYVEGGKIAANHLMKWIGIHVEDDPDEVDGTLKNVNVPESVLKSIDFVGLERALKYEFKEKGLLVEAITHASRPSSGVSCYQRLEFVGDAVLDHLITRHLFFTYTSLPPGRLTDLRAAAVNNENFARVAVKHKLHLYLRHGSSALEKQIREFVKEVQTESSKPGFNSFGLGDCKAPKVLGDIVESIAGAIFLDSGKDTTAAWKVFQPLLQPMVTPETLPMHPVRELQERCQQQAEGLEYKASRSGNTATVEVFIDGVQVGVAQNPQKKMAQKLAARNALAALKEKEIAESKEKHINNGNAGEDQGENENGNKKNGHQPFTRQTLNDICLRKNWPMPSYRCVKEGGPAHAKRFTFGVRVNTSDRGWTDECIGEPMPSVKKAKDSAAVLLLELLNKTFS

In data set [2] the target is DCL1 (Arabidopsis thaliana) (UniProt Q9SP32). As to the kind of experiment: SPR. To be noted: 150 mM NaCl; SPR (Biacore T100): 20 mM Tris-HCl pH 7.0, 50 or 150 mM NaCl, 2 mM β-ME (0.005% P20 for SE variants); proteins 42-43 nM (Fig 2E), SE 20 nM (Fig 4); recombinant protein; residues 1-1909; label: 5'-biotin on strand 1.

For some assays here: Construct, isoform or probe ends are uncertain for at least one entry. Whether high values mean tight binding is not given here for every scale. For some assays here: Protein sequences can lack the tags named with them.

The results in this text go back to paper PMC3799435, “Dissecting the interactions of SERRATE with RNA and DICER-LIKE 1 in Arabidopsis microRNA precursor processing” (Nucleic Acids Research, 2013).

Take “CAACCCAAGAUAGAUCAUGCAGGCAGCUUCAUCAGAUGCCGCUCCCUCUUUUUUUCUCUA / GCUCCCUCUUUUUUUCUCUAGGCAUCUGAUGAAGCUGCCUGCAUGAUCUAUCUUGGGUUG [forked-RNA]”: the binding signal (fold decrease in RUmax vs 50 mM NaCl) in data set [1] worked out at 18; in data set [2], 4.
